# According to publication PMC12040169 (PLOS Biology, 2025):
# Some of the results follow.
# System: T1, CTL2-GFP (C. trachomatis L2/434/Bu, GFP-expressing)
# T1 construct: L2/434/Bu, GFP-expressing
# Parameters: species or system HeLa; Intracellular C. trachomatis growth in HeLa cells, bulk GFP fluorescence relative to DMSO
# Conditions: bulk GFP, single well; 28.5 h, 10 µM; inhibitor
row,Structure (SMILES),% of control remaining
1,Cc1cc(SCc2ccc(Cl)cc2)nc(=O)[nH]1 [CBK287719],106.244%
2,COC(=O)Nc1ccc(S(=O)(=O)N2CCCC(C(=O)O)C2)cc1 (stereo not drawn) [CBK265364],116.422%
3,Cc1cc(NC(=O)C(=O)NCCCN2CCOCC2)ccc1Br [CBK268046],141.815%
4,Cc1cc(O)c(-c2n[nH]c3c2C(c2ccccc2F)N(Cc2cccnc2)C3=O)cc1C (stereo not drawn) [CBK268831],185.297%
5,COc1ccccc1CCNC(=O)c1ncoc1-c1cccs1 [CBK282394],128.538%
6,COC(=O)c1ccc(S(=O)(=O)N2CCC(C)CC2)cc1 [CBK070414],92.2565%
7,O=C(O)c1ccc(-c2n[nH]c(=O)c3ccccc23)cc1 [CBK287148],111.674%
8,Clc1cccc(-c2cncc(N3CCN(c4ccncc4)CC3)n2)c1 [CBK066099],141.959%
9,COc1ccc([C@@]23CC[C@@H](NC(=O)Nc4ccc(C(C)(C)C)cc4)C[C@@H]2N(C)CC3)cc1OC [CBK036469T],103.458%
10,NCCOc1ncccc1OCc1ccccc1 [CBK036305],122.074%
11,CNC(=O)c1ccc(-c2ccc(C(C)=O)s2)nc1NCC1CC1 [CBK106307],100%
12,CCOC(=O)c1c(NC(=O)c2cc3ccccc3o2)sc2c1CCCC2 [CBK262552],100%
13,O=C(CSCc1ccc(Cl)cc1Cl)Nc1nccs1 [CBK131921],114.113%
14,O=C(O)CC(NCc1ccccc1)C(=O)Nc1ccc(Cl)cc1 (stereo not drawn) [CBK267141],150.871%
15,Cn1cccc1CN1CCCC(n2c(=O)oc3ccccc32)C1 (stereo not drawn) [CBK285111],123.194%
16,O=C(/C=C/c1ccsc1)Nc1ccc(F)cc1 [CBK057139],82.8661%
17,O=C(CC(CN1CCN(c2ccccn2)CC1)C(=O)O)NCc1ccccc1 (stereo not drawn) [CBK286649],102.855%
18,O=C1c2ccccc2CN1c1ccc(OC(F)(F)F)cc1 [CBK113237],56.8351%
19,O=C(CSc1ncn(-c2ccccc2)n1)Nc1ccc(F)c(Cl)c1 [CBK267313],114.968%
20,COc1ccc(/C(C#N)=C/c2ccc(-c3ccc(C(=O)O)cc3)o2)cc1OC [CBK268953],105.539%
21,CC(C)N/C(=N/S(=O)(=O)c1ccccc1)c1ccccc1 [CBK262346],100%
22,Cc1n[nH]c(C)c1CCC(=O)N/N=C/c1ccc(O)cc1 [CBK262927],100%
23,COc1ccccc1CCC(=O)N1CCCc2c(cnn2C)C1 [CBK284847],128.079%
24,Cc1ccc(N2CC(C(=O)Nc3ccc(S(=O)(=O)NCC4CCCO4)cc3)CC2=O)cc1 (stereo not drawn) [CBK267532],126.505%
25,COC(=O)c1cccc2c1CCCN2Cc1nnc(C2CCC2)o1 [CBK304072],102.673%
26,O=C(NC(c1ccccc1)c1cccnc1)C1CCN(C(=O)NCCc2cccs2)CC1 (stereo not drawn) [CBK060313],138.386%

# As entered above:
# Value for CNC(=O)c1ccc(-c2ccc(C(C)=O)s2)nc1NCC1CC1 [CBK106307] under % of control remaining: 100%
# Value for Cc1n[nH]c(C)c1CCC(=O)N/N=C/c1ccc(O)cc1 [CBK262927] under % of control remaining: 100%

# (further entries)

row,Structure (SMILES),% of control remaining
1,CCOC(=O)c1ccc(N2CCN(C(C)=O)CC2)c(NC(=O)c2cccc(F)c2)c1 [CBK270263],118.71%
2,O=C(Nc1ccc(Cl)cc1Cl)NC(Cc1ccc(O)cc1)C(=O)O (stereo not drawn) [CBK267386],149.44%
3,COc1cc(CNC(=O)N(CCC#N)C2CCCCC2)cc(OC)c1OC [CBK156359],103.24%
4,CC(C)(CN)c1ccccc1 [CBK012106C],142.327%
5,Cc1cc2ncc3c(n2n1)CC1CCC3N1C(=O)c1ccco1 (stereo not drawn) [CBK284379],133.391%
6,Cc1ccc(N(CC(O)CN2C(=O)NC(C)(C)C2=O)S(=O)(=O)c2ccccc2)cc1 (stereo not drawn) [CBK263580],84.0952%
7,CNC(=O)CN1CC[C@H]2NC(=O)c3ccccc3OCC/C=C/C[C@H]2C1 [CBK292049],129.533%
8,COc1ccccc1/C=N/NC(=O)COc1c(Br)cc(Br)cc1Br [CBK261966],109.58%
9,COc1cccc(/C=N/NC(=O)CCN2CCN(C)CC2)c1O [CBK261499],115.776%
10,Cc1ccc(-c2ccnc3[nH]c(=O)[nH]c(=O)c23)cc1 [CBK287978],131.939%
11,Cc1cccc(C2(c3cccc(C)c3)CC2C(=O)NCc2cccnc2)c1 (stereo not drawn) [CBK262382],106.017%
12,CC(=O)Cc1ccccc1OCC(=O)O [CBK261031],117.978%
13,Cc1cc(C)c(C)c(C(=O)COC(=O)c2cc(O)nc3ccccc23)c1C [CBK264066],119.534%
14,CN1C(=O)c2ccccc2OCCCCC[C@H]2[C@@H]1CCCN2C(=O)CN1CCN(CCO)CC1 [CBK292144],142.95%
15,Cc1cc(O)nc(SCCOCCSc2ccc(Cl)cc2)n1 [CBK267372],155.55%
16,COc1cc2[nH]c(=S)n(CCc3c[nH]cn3)c(=O)c2cc1OC [CBK268333],125.008%
17,Cc1onc(-c2ccccc2Cl)c1C(=O)Nc1ccc(S(=O)(=O)NCC2CCCO2)cc1 (stereo not drawn) [CBK267536],131.896%
18,COc1cccc(CNC(C)(C)CO)c1OCc1ccc(Cl)cc1 [CBK266552C],170.366%
19,Cc1cc(N2CCOCC2)ccc1NC(=O)CCOc1cccc(Cl)c1 [CBK305724],135.65%
20,O=C(c1cc(-c2cccs2)[nH]n1)N1CCCCCC1 [CBK288108],146.114%
21,Cc1nnc2sc(-c3ccc(NC(=S)NC(=O)c4ccc(-c5ccccc5[N+](=O)[O-])o4)cc3)nn12 [CBK266803],175.234%
22,CC(Nc1cc(N2CCN(S(=O)(=O)N(C)C)CC2)ccc1[N+](=O)[O-])C12CC3CC(CC(C3)C1)C2 (stereo not drawn) [CBK265479],85.8577%
23,CCOc1ccc(CNc2ccc(S(N)(=O)=O)cc2)cc1 [CBK267962],107.579%
24,Cc1ccc(S(=O)(=O)N2CCCCC2CO)cc1 (stereo not drawn) [CBK051142],74.894%
25,CN(C)C(=O)c1sc2ccccc2c1Cl [CBK067817],112.278%
